Assay results: PMC6936879 (PLoS ONE, 2019)
Plain letter strings leave the end groups untold.

Test: general procedure: Fmoc solid-phase peptide synthesis; rink-amide resin (GLC, Shanghai, China); HBTU/DIPEA in DMF
Settings: whole synthesis

Row | Sequence | final purity (method not given)
1 | AKIQGMDPVWVTA | 96.0%
2 | KIQGMDPVWVT | 96.9%
